# Cell number after 72 h of treatment

Drug key:
temozolomide: Cn1nnc2c(C(N)=O)ncn2c1=O at 2 µM
KU-0063794: COc1ccc(-c2ccc3c(N4CCOCC4)nc(N4C[C@@H](C)O[C@@H](C)C4)nc3n2)cc1CO at 0.02 µM
everolimus: CO[C@H]1C[C@@H]2CC[C@@H](C)[C@@](O)(O2)C(=O)C(=O)N2CCCC[C@H]2C(=O)O[C@H]([C@H](C)C[C@@H]2CC[C@@H](OCCO)[C@H](OC)C2)CC(=O)[C@H](C)/C=C(\C)[C@@H](O)[C@@H](OC)C(=O)[C@H](C)C[C@H](C)/C=C/C=C/C=C/1C at 0.02 µM
LFM-A13: C/C(O)=C(\C#N)C(=O)Nc1cc(Br)ccc1Br at 2 µM
fludarabine: Nc1nc(F)nc2c1ncn2[C@@H]1O[C@H](CO)[C@@H](O)[C@@H]1O at 0.2 µM
decitabine: Nc1ncn([C@H]2C[C@H](O)[C@@H](CO)O2)c(=O)n1 at 0.1 µM
SNS-032: CC(C)(C)c1cnc(CSc2cnc(NC(=O)C3CCNCC3)s2)o1 at 0.01 µM
SNS-314: O=C(Nc1cccc(Cl)c1)Nc1ncc(CCNc2ncnc3ccsc23)s1 at 0.0008 µM
TCS401: O=C(O)C(=O)Nc1sc2c(c1C(=O)O)CCNC2 at 1.67 µM
U73122: COc1ccc2c(c1)CCC1C2CCC2(C)C(NCCCCCCN3C(=O)C=CC3=O)CCC12 (centres unmarked) at 0.4 µM
midostaurin: CO[C@@H]1[C@H](N(C)C(=O)c2ccccc2)C[C@H]2O[C@]1(C)n1c3ccccc3c3c4c(c5c6ccccc6n2c5c31)C(=O)NC4 at 0.08 µM
L-779450: Oc1cc(-c2nc(-c3ccccc3)[nH]c2-c2ccncc2)ccc1Cl at 0.2 µM

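Human melanoma cell lines in 1,536-well plates were treated with two drugs together for 72 h, then fixed, stained and imaged. The read-out is cell count (nuclei) in % of the DMSO control; lower values mean stronger growth inhibition or killing. Every drug was used at one fixed concentration, the lower of two screened (a fifth of the higher). The file gives one value for each pair and line, without errors, so small differences may be noise.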 This is part of the screen, not chosen by result. A dash means that no value is listed here.

Drugs,C32,G-361,501mel,A2058
U73122 and SNS-314,85.6,90.7,93.8,94.8
everolimus and midostaurin,79.4,66.5,-,65.9
temozolomide and fludarabine,110,81.2,-,96.1
KU-0063794 and fludarabine,101,111,3.4,96.8
SNS-314 and everolimus,89.8,63.3,-,78.4
midostaurin and LFM-A13,99.9,91.5,112,79.6
TCS401 and fludarabine,89.3,99.4,9.4,102
decitabine and SNS-314,90.1,88.9,-,79.8
TCS401 and SNS-314,74.5,102,100,92.8
TCS401 and everolimus,91.6,68.6,71.1,69.2
SNS-032 and KU-0063794,83.4,108,79.3,93.0
temozolomide and everolimus,91.2,63.6,-,78.8
temozolomide and TCS401,111,113,101,88.8
SNS-032 and U73122,89.6,97.4,118,97.7
KU-0063794 and LFM-A13,88.7,105,94.1,87.4
decitabine and SNS-032,112,95.7,-,89.7
midostaurin and decitabine,89.7,77.3,-,68.9
TCS401 and SNS-032,104,110,112,98.1
midostaurin and TCS401,95.6,82.1,112,97.9
SNS-032 and fludarabine,87.1,101,-,97.2
U73122 and temozolomide,85.4,89.6,90.1,64.0
everolimus and SNS-032,93.6,66.7,-,69.2
L-779450 and temozolomide,77.8,102,80.7,73.9
fludarabine and midostaurin,93.4,101,-,81.9
L-779450 and decitabine,82.3,90.8,79.3,74.1
L-779450 and SNS-314,94.6,102,78.4,106
LFM-A13 and temozolomide,117,109,104,96.6
decitabine and TCS401,107,81.4,-,82.7
LFM-A13 and everolimus,102,77.5,63.5,70.6
SNS-314 and LFM-A13,102,93.8,102,93.4
TCS401 and LFM-A13,103,93.3,109,100
L-779450 and SNS-032,87.8,93.4,78.4,98.4
U73122 and fludarabine,107,101,5.4,75.7
decitabine and KU-0063794,99.5,87.3,77.8,76.0
U73122 and midostaurin,102,98.2,82.8,86.8
L-779450 and midostaurin,72.1,80.2,66.5,82.1
fludarabine and SNS-314,96.3,95.3,-,107
SNS-314 and KU-0063794,80.1,90.9,92.7,90.8

From a melanoma drug combination screen (doi:10.1371/journal.pone.0140310); values rounded.